Columns and labels:
dog drinking behavior = dog drinking behavior with bowls of various concentrations of molecular iodine in water (Example 2); assay type: in vivo, dogs; details: for water consumed from bowl: three dogs, repeated 3 times
drinking acceptance = test: preliminary experiments on acceptance of elemental iodine in dog drinking water; assay type: in vivo, dogs

In the case of `II` [molecular iodine], the “water consumed from bowl” value (dog drinking behavior; bowl 2, 0.1 microgram/mL) was “All the water”, the “water consumed from bowl” value (dog drinking behavior; bowl 3, 0.5 microgram/mL) was “All the water” and the “water consumed from bowl” value (dog drinking behavior; bowl 4, 1.0 microgram/mL) was “All the water”. For the same molecule, the “water consumed from bowl” value (dog drinking behavior; bowl 5, 2.0 microgram/mL) was “no water was consumed”, the “water consumed from bowl” value (dog drinking behavior; bowl 6, 4.0 microgram/mL) was “no water was consumed” and the “water consumed from bowl” value (dog drinking behavior; bowl 7, 8.0 microgram/mL) was “no water was consumed”. For the same molecule, the “greatest concentration that dogs will freely drink without restriction” value (dog drinking behavior; in water) was 1.0 microgram/mL, the “rejection by test dogs” value (drinking acceptance; 0.05 micrograms/mL) was “never rejected” and the “rejection by test dogs” value (drinking acceptance; 0.1 micrograms/mL) was “never rejected”. The “rejection by test dogs” value (drinking acceptance; 0.5 micrograms/mL) was “never rejected”, the “drinking of iodine in dog drinking water” value (drinking acceptance; concentration too high e.g., 5 micrograms/mL) was “would not drink” and the “rejection of drinking by dogs” value (drinking acceptance; concentrations above 2 micrograms/mL) was “often rejected”. For the same molecule, the “approximate limit of concentration in water that canines can detect” value (drinking acceptance; dog, in vivo) was “about 1.0 micrograms per milliliter” and the “concentration of elemental iodine in drinking water preferred by dogs” value (drinking acceptance; evaluated 0.5, 1.0, 2.0, 3, 5, 10, 15 and 20 micrograms/mL) was “below 2 micrograms/mL”.
